Experimental data taken from publication doi:10.1101/2022.11.11.516072.
Read-outs that look alike come from different tables or passages of the source. Results are given in words; binding and its absence hold for the method and conditions named. Binding seen in cells or lysates may run through a third protein. Here binding means that the protein was enriched with, or labelled near, the bait; the list need not be complete. For some of these results: A no says only that the protein was not detected with the bait.

The chains behind the UniProt entries cited, without tags or fusion partners. Residues count along the entry.
UniProt Q8K0T4: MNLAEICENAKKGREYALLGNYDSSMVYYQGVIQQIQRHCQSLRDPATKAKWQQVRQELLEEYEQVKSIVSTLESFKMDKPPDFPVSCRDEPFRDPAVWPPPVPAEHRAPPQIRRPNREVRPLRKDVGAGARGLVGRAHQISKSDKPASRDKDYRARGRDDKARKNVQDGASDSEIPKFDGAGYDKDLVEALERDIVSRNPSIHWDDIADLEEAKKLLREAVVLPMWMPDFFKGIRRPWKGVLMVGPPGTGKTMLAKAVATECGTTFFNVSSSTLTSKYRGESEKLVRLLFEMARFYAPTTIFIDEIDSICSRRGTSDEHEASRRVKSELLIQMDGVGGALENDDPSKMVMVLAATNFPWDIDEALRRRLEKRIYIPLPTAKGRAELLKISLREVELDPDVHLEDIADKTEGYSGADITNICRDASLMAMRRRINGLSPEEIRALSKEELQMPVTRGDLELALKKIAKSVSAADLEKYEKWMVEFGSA
UniProt Q9WV86: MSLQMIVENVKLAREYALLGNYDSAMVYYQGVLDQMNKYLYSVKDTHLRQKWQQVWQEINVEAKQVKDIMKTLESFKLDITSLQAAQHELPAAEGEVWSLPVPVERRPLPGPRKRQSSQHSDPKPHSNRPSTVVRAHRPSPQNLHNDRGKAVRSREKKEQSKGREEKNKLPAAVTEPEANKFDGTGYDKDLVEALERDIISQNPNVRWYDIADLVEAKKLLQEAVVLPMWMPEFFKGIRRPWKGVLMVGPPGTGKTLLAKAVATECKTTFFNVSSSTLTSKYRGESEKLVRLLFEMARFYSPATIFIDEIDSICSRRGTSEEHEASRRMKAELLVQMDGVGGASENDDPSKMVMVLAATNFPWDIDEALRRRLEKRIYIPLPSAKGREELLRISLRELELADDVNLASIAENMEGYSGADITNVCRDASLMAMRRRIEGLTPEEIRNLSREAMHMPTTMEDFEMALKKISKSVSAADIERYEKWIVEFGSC
UniProt Q8BG40: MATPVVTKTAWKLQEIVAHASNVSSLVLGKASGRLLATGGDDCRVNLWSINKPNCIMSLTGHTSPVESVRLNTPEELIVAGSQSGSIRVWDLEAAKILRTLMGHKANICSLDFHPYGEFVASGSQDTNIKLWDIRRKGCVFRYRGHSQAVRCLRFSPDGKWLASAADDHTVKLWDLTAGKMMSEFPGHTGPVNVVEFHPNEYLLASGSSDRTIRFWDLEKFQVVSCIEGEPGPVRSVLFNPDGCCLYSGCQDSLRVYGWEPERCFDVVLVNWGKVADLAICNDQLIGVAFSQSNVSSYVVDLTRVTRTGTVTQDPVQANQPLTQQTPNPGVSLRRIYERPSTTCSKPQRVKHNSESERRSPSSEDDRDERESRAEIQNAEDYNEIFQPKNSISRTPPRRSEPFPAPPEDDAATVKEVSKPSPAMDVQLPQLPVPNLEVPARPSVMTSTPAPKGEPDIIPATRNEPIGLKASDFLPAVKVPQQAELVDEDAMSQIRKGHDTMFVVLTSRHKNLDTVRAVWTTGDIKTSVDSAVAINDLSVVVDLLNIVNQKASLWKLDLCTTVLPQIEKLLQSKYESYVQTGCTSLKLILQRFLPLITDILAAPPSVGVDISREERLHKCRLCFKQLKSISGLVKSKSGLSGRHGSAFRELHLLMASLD
UniProt O35685: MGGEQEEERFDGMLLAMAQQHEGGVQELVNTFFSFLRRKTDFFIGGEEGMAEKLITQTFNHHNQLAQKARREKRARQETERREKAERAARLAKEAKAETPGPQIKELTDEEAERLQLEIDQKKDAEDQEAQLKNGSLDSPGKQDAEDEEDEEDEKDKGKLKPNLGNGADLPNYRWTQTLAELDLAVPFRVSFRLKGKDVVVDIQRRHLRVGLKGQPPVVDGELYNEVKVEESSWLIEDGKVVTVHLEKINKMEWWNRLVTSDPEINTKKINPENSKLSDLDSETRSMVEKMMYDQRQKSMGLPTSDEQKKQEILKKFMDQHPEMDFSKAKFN
UniProt F8VPN2: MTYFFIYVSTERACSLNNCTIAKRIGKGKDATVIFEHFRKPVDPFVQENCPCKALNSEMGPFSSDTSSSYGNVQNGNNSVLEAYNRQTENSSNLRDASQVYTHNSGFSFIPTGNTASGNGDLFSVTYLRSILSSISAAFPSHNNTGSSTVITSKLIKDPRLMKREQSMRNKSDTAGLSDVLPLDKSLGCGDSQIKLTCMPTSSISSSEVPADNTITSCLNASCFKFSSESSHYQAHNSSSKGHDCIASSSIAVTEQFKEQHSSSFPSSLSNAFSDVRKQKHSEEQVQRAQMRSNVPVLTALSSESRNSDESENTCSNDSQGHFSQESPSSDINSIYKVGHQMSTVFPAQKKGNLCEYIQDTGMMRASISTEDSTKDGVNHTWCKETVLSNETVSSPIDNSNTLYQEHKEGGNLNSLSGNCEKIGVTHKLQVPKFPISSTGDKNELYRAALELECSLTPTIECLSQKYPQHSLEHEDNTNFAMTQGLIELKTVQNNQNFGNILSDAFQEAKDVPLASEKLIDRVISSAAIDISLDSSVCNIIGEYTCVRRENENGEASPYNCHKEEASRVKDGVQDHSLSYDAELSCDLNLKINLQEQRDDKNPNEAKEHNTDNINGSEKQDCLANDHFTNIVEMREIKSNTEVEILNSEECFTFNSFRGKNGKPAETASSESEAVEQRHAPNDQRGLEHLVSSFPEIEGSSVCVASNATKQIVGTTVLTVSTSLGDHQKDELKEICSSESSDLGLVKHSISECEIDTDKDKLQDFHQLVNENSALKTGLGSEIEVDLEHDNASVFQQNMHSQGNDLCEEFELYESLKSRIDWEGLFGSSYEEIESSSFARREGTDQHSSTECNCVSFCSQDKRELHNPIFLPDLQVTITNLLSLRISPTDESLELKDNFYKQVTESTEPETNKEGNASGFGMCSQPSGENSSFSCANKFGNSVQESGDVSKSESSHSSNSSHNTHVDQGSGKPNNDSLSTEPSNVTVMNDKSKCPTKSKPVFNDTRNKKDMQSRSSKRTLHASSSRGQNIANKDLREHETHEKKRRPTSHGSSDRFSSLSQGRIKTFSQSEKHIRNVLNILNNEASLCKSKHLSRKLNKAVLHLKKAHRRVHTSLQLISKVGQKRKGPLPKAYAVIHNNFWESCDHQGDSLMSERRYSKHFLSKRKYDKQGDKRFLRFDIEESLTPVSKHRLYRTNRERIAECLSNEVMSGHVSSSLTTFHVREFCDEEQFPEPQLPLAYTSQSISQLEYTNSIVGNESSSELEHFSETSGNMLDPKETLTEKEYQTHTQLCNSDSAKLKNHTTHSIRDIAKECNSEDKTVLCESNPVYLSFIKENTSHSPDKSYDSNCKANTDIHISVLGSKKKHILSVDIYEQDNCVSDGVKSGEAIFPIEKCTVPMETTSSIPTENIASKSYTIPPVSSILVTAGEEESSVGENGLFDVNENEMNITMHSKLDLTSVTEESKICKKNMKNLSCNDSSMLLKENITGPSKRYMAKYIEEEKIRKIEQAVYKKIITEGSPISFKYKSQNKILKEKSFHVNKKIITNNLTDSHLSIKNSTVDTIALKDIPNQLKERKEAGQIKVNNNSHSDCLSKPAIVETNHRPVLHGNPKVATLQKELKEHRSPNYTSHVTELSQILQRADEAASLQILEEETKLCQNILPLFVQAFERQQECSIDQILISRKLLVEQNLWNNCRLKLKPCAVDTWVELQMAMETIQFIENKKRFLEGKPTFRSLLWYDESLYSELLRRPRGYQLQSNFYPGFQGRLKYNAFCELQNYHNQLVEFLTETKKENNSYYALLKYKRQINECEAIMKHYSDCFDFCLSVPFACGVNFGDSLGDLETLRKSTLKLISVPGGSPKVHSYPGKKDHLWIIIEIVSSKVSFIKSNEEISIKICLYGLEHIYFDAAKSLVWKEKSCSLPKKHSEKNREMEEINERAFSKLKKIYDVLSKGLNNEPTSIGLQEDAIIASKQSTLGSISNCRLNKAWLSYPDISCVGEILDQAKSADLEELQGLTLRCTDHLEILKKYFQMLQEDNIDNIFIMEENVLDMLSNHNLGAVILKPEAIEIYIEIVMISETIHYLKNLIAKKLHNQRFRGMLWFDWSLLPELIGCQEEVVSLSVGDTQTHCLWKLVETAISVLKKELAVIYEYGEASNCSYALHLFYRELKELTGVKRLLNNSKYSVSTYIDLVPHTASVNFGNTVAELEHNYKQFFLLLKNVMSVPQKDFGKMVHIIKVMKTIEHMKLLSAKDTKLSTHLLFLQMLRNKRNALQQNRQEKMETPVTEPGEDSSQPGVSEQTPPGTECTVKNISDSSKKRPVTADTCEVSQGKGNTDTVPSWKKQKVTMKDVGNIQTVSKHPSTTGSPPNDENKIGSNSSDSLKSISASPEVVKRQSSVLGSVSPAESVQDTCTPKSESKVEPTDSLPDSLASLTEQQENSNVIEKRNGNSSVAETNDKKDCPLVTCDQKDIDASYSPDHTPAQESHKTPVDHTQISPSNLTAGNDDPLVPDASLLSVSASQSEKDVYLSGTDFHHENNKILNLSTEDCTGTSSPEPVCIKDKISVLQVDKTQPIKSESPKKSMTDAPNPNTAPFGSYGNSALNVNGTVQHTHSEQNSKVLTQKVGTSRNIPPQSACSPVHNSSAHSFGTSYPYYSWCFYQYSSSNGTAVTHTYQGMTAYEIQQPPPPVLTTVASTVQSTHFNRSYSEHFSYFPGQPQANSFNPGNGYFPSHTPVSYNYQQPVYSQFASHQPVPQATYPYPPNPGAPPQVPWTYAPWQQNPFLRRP
UniProt Q3V140, residues 26-540: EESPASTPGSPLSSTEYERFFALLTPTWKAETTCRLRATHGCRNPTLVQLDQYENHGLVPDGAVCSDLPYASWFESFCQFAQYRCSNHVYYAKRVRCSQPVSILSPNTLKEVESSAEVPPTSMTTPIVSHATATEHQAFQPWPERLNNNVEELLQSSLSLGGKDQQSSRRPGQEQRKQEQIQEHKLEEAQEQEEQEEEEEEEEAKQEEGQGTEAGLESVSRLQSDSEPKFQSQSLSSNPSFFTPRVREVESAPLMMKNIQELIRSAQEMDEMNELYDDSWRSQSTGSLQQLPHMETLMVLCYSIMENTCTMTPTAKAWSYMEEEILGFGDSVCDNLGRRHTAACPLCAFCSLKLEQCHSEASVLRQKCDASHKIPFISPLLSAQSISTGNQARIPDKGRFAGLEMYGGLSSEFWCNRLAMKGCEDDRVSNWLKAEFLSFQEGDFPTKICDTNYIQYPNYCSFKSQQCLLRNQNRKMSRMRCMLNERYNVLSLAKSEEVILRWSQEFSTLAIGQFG
UniProt Q9WUL7: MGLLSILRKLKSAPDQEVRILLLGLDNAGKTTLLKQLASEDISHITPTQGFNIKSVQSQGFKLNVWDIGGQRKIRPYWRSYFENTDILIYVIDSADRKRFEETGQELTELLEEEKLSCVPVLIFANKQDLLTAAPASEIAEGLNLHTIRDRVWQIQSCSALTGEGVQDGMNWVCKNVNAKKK
UniProt P17156: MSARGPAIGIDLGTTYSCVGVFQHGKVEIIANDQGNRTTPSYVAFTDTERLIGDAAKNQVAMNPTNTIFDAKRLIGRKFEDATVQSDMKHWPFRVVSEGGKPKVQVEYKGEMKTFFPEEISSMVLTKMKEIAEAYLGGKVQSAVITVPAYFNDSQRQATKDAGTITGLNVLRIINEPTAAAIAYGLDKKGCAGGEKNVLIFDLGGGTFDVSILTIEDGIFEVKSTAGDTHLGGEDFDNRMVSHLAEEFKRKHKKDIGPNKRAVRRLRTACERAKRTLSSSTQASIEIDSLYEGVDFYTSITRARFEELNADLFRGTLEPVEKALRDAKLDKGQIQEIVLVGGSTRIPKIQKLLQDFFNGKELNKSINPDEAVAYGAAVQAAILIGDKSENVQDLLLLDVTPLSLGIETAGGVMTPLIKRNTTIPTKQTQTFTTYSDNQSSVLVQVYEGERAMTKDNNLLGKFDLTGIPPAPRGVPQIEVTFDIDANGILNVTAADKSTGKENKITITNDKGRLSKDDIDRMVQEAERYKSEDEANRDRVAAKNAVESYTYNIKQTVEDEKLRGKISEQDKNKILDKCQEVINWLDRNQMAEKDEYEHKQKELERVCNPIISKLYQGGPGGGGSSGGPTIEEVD

What was measured:
Experiment in all cases: affinity purification with mass spectrometry
[1] = biological target: KATNAL1 (mouse (endogenous in testis)) (UniProt Q8K0T4)
[2] = biological target: KATNA1 (mouse (endogenous in testis)) (UniProt Q9WV86)
[3] = biological target: KATNB1 (mouse (endogenous in testis)) (UniProt Q8BG40)
[4] = biological target: KATNAL1 (mouse (endogenous in testis)) (UniProt Q8K0T4); remark: listed apart in the source
[5] = biological target: KATNA1 (mouse (endogenous in testis)) (UniProt Q9WV86); remark: listed apart in the source

Molecule	binding [1]	binding [2]	binding [5]	further results
CAPZA2 (from UniProt P47754 1-286)	binds	binds		
KATNB1 (from UniProt Q8BG40 1-658)	binds			
NUDC (from UniProt O35685 1-332)	binds	binds		binding [3]: binds
TEX15 (from UniProt F8VPN2 1-2785)		binds		
MYL6 (protein, UniProt Q60605 1-151) MCDFTEDQTAEFKEAFQLFDRTGDGKILYSQCGDVMRALGQNPTNAEVLKVLGNPKSDEMNVKVLDFEHFLPMLQTVAKNKDQGTYEDYVEGLRVFDKEGNGTVMGAEIRHVLVTLGEKMTEEEVEMLVAGHEDSNGCINYEAFVRHILSG			binds	
DNAAF4 (protein, UniProt Q8R368 1-420) MPVRVSEFSWQQTPATIFLSLPLRGVCVRDADVFCGESYLKVNFPPFLFELFLYAPIDDGKSKAKIGNDTILFTLYKKEPVLWDSLSVPGVDKEMMQRIREKSILQAQEKAKEATEAKAVAKREDQRYALGEMMKIEEEERKKIEDMKENERKKATSELEAWKECQKKADGQKRVQRKEKPLEGKQAEETKALKPRGLPRKAPPTRLPTRGRNWENIFPEKLKEDRVPAPRSAGSIQISFTPRVFPTALRESQVAEEEEWLHKQAEARRAMSTDLPEFFDLKEEERNPDWLKDKGNKLFATENYLAAVDAYNLAIRLNCKIPLLYLNRAACHLKLKNLHKAIEDSSKALELLTPPVADNANARMKAHVRRGTAFCQLELYVEGLQDYEAALKIDPANTVVQNDAEKIRNIIQGTALKSRD			binds	

The next lines start with results.

binding [1]	binding [2]	binding [5]	Molecule	further results
binds			ACRBP (from UniProt Q3V140 26-540)	
	binds		ARL3 (from UniProt Q9WUL7 1-182)	
	binds		HSPA2 (from UniProt P17156 1-633)	binding [3]: binds
	no binding		KATNAL1 (from UniProt Q8K0T4 1-488)	binding [3]: binds
		binds	FABP9 (protein, UniProt O08716 1-132) MIEPFLGTWKLISSENFENYVRELGVECEPRKVACLIKPSVSISFNGERMDIQAGSACRNTEISFKLGEEFEETTADNRKVKSLITFEGGSMIQVQKWLGKQTTIKRKIVDGKMVVECTMNNVVSTRIYERV	binding [4]: binds
		no binding	KATNAL2 (protein, UniProt Q9D3R6 1-539) MELSYQTLKLTHQAREAYEMRTEARRKNLLILILHYLTQEGYMDAAKALEEETKLGLRRFEVCDNVDLETILMEYESYYFVKFQKYPKVVKKAPDPVENNLPSRSGGKNKRLTNDSCQNLPKICHQKSRPKTSAVKTGDTKSVKEHLKQVKESVTDTQAESTDFGLNISKIHKDQPEEKAQPRRGQIIDFRGLLSDAIKGATSEFALNTFECNPDPSERLLKPLSAFIGMNSEMRELAAVVSRDIYLHNPNIKWNDIIGLDAAKQLVKEAVVYPIRYPQLFTGILSPWKGLLLYGPPGTGKTLLAKAVATECKTTFFNISASTIVSKWRGDSEKLVRVLFELARYHAPSTIFLDELESVMSQRGMVPGGEHEGSLRMKTELLVQMDGLARSEDLVFVLAASNLPWELDCAMLRRLEKRILVDLPSQEARQAMIYHWLPPVSKNHALELHTQLEYSVLSQETEGYSGSDIKLVCREAAMRPVRKIFSVLENNQSESNNLPGIQLDTVTTQDFLDVLAHTKPSAKNLTERYLAWQEKFESV	binding [4]: no binding
